Reference: PubChem BioAssay AID328 (DTP/NCI, 2004)
The list does not hold the whole screen: it is rich in T/C values a quarter to a half above the control, in often repeated tests (any T/C) and in doses without a T/C. Other doses and runs of a compound stand elsewhere. T/C: endpoint of the treated group in % of that of the vehicle group. Some doses have a count of surviving animals in place of a T/C: the source holds a T/C of zero for them, seemingly a mark for toxic or unscored doses. Some survivor counts are full or nearly so, which does not show that the dose was tolerated: the source hardly ever lists a survival T/C far under the control, and the zero likely stands for such cases as well. Counts of survivors are from the toxicity check (mostly the fifth day) where no day follows; animals may have died later. Schedule codes are those of the source, taken here to give the interval after Q, in days (D) or hours (H), and the number of doses after X. Where survival is the endpoint, this PubChem deposit counts one and a half times the control or more as active, and values a quarter to a half above the control carry no call in these data; other NCI protocols may use other cut-offs. Some doses were run more than once; the values are given in rising order.

Test system: BDF1 mice, P388 leukemia ip, median survival T/C
Assay: NCI In Vivo Anticancer Drug Screen. Data for tumor model P388 Leukemia (intraperitoneal) in B6D2F1 (BDF1) mice
Details: T/C endpoint: median survival time, higher T/C = longer survival
Method in brief: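 Survival ratio, drug arm over vehicle arm, in mice with a transplanted tumour.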

[1] = dose: 100.0 mg/kg/injection, schedule: Q01DX009 (ip), vehicle: Klucel (hydroxypropylcellulose) (HPC)
[2] = dose: 200.0 mg/kg/injection, schedule: Q01DX001 (ip), vehicle: Klucel (hydroxypropylcellulose) (HPC)

## C[C@H]1CCC/C=C/[C@@H]2C[C@H](O)C[C@H]2[C@H](O)/C=C/C(=O)O1
dose: 25.0 mg/kg/injection, schedule: Q01DX010 (ip), vehicle: water
  survivor count: 6 of 6
dose: 45.0 mg/kg/injection, schedule: Q01DX010 (ip), vehicle: water
  survivor count: 6 of 6
dose: 50.0 mg/kg/injection, schedule: Q01DX010 (ip), vehicle: water
  survivor count: 6 of 6
dose: 67.0 mg/kg/injection, schedule: Q01DX010 (ip), vehicle: water
  survivor count: 6 of 6
dose: 100.0 mg/kg/injection, schedule: Q01DX010 (ip), vehicle: water
  survivor count: 6 of 6
dose: 200.0 mg/kg/injection, schedule: Q01DX010 (ip), vehicle: water
  survivor count: 6 of 6
dose: 200.0 mg/kg/injection, schedule: Q04DX003 (ip), vehicle: Klucel (hydroxypropylcellulose) (HPC)
  survivor count: 6 of 6

## Cc1ccc(C2NC(=O)c3ccccc3N2)s1 (stereo unspecified)
[1]
  T/C: 100, 115, 116, 120 % of control
dose: 200.0 mg/kg/injection, schedule: Q01DX009 (ip), vehicle: Klucel (hydroxypropylcellulose) (HPC)
  T/C: 127, 134, 140, 161 % of control

## CCc1cccc2c(NCCCCCCNc3c4ccccc4nc4c(CC)cccc34)c3ccccc3nc12
dose: 1.25 mg/kg/injection, schedule: Q01DX009 (ip), vehicle: lactic acid
  T/C: 128 % of control
dose: 2.5 mg/kg/injection, schedule: Q01DX009 (ip), vehicle: lactic acid
  T/C: 143 % of control
dose: 10.0 mg/kg/injection, schedule: Q01DX009 (ip), vehicle: lactic acid
  survivor count: 6 of 6
dose: 20.0 mg/kg/injection, schedule: Q01DX009 (ip), vehicle: lactic acid
  survivor count: 4 of 6

## NCCCNCCCCNCCCN
dose: 25.0 mg/kg/injection, schedule: Q01DX001 (ip), vehicle: saline
  T/C: 129 % of control
dose: 100.0 mg/kg/injection, schedule: Q01DX001 (ip), vehicle: saline
  survivor count: 3 of 6
dose: 200.0 mg/kg/injection, schedule: Q01DX001 (ip), vehicle: saline
  survivor count: 0 of 6

## Nc1ncnc2c1cnn2Cc1ccc(Cl)cc1
dose: 25.0 mg/kg/injection, schedule: Q04DX003 (ip), vehicle: Klucel (hydroxypropylcellulose) (HPC)
  T/C: 127 % of control
[1]
  survivor count: 6 of 6

## CCN(CC)CCCC(C)NC(=O)c1ccc(N(C)C)nc1 (stereo unspecified)
dose: 25.0 mg/kg/injection, schedule: Q01DX009 (ip), vehicle: water
  survivor count: 6 of 6
dose: 100.0 mg/kg/injection, schedule: Q01DX009 (ip), vehicle: water
  survivor count: 6 of 6
dose: 200.0 mg/kg/injection, schedule: Q01DX009 (ip), vehicle: water
  survivor count: 6 of 6
dose: 400.0 mg/kg/injection, schedule: Q01DX009 (ip), vehicle: water
  survivor count: 3 of 6

## C[C@]12CC[C@@H]3c4ccc(Oc5nc(N6CC6)nc(N6CC6)n5)cc4CC[C@H]3[C@@H]1CCC2=O
dose: 12.5 mg/kg/injection, schedule: Q01DX009 (ip), vehicle: saline with Tween-80
  T/C: 141 % of control
dose: 25.0 mg/kg/injection, schedule: Q01DX009 (ip), vehicle: saline with Tween-80
  survivor count: 5 of 6
dose: 50.0 mg/kg/injection, schedule: Q01DX009 (ip), vehicle: saline with Tween-80
  survivor count: 2 of 6
dose: 100.0 mg/kg/injection, schedule: Q01DX009 (ip), vehicle: saline with Tween-80
  survivor count: 0 of 6

## CCOP(=O)(OCC)Oc1cnn(C)c(=O)c1SCC
dose: 50.0 mg/kg/injection, schedule: Q01DX005 (ip), vehicle: saline
  survivor count: 0 of 6
dose: 100.0 mg/kg/injection, schedule: Q01DX005 (ip), vehicle: saline
  survivor count: 0 of 6
dose: 200.0 mg/kg/injection, schedule: Q01DX005 (ip), vehicle: saline
  survivor count: 0 of 6

## CCCCCCCCCCCCNCCCCCCCCCCCC
dose: 4.0 mg/kg/injection, schedule: Q01DX010 (ip), vehicle: water
  survivor count: 6 of 6
dose: 28.0 mg/kg/injection, schedule: Q01DX009 (ip), vehicle: Klucel (hydroxypropylcellulose) (HPC)
  survivor count: 4 of 6
dose: 40.0 mg/kg/injection, schedule: Q01DX009 (ip), vehicle: Klucel (hydroxypropylcellulose) (HPC)
  survivor count: 0 of 6
dose: 130.0 mg/kg/injection, schedule: Q01DX001 (ip), vehicle: Klucel (hydroxypropylcellulose) (HPC)
  survivor count: 1 of 6
[2]
  T/C: 133 % of control
  survivor count: 2 of 6
dose: 300.0 mg/kg/injection, schedule: Q01DX001 (ip), vehicle: Klucel (hydroxypropylcellulose) (HPC)
  survivor count: 1 of 6
